This note sets out measurements from patent US5202320A, “Method for treating leishmaniasis” (priority 1989, dated 1993).

The test system of the data set is Leishmania mexicana amazonensis. The experiment in a line: In vitro screening for anti-leishmanial activity: inhibition of 3H-thymidine incorporation by promastigotes. The class given is cell-based. The settings on record: rank by NEW IC50 among 18 examples. On the procedure:
Leishmania mexicana amazonensis, strain MHOM/BR/73/M2269 (WR669), promastigotes were grown to early log phase in Schneider's Drosophila Medium (GIBCO) supplemented with 20% heat-inactivated fetal bovine serum GIBCO) and 100 ug/ml gentamicin sulfate [Parasitology 76:309 (1978)]. The assay medium was Schneider's plus 10% fetal bovine serum. Serial dilutions of the compounds of use in the present invention were suspended in the assay medium an prepared in duplicate rows of a 96-well microtiter plate. Parasite suspension (200 ul) at 2.5×10^6 cells/ml was added to each well and each plate was sealed and incubated under air at 25° C. After 24 hours, [methyl-3H] thymidine (20 Ci/mmol) was added to yield 1-2 uCi/well. After an additional 18 hours, the cells were harvested with a Skatron cell harvester onto glass microfiber filters. The filter disks were washed and dried and counted using a Beckman LS3801 scintillation counter. The data on uptake of ^3 H-thymidine was fitted to a logistic-logarithmic concentration response function by a non-linear regression method and the drug concentrations required to inhibit 50% incorporation of ^3 H-thymidine were determined [Antimicrob. Agents Chemother. 16:710 (1979); Exper. Parasitol. 66:86 (1988)].
In general terms: Uptake of a labelled nucleoside into DNA is a usual measure of proliferation.
With `N=C(N)c1ccc(OCCCCCOc2ccc(C(=N)N)cc2[N+](=O)[O-])c([N+](=O)[O-])c1` [Example 5], the “Rank (of 18) (NEW)” value was 13.

As for `N=C(N)c1ccc(NCCCCNc2ccc(C(=N)N)cc2)cc1` [Example 2], the “Rank (of 18) (NEW)” value came out at 3.

On to `COc1cc(C2=NCCN2)ccc1OCCCOc1ccc(C2=NCCN2)cc1OC` [Example 17], for which the “Rank (of 18) (NEW)” value is recorded as 11.

On to `N=C(N)c1cccc(OCCCCCCOc2cccc(C(=N)N)c2)c1` [Example 14], for which the “Rank (of 18) (NEW)” value was 14.

For `N=C(N)c1ccc(OCCCCCOc2ccc(C(=N)N)cc2)cc1` [Example 4, pentamidine], the “Rank (of 18) (NEW)” value was 4.

For `CN1CCN=C1c1ccc(OCCCCCOc2ccc(C3=NCCN3C)cc2)cc1` [Example 16], the “Rank (of 18) (NEW)” value turned out to be 18.

As to `N=C(N)c1ccc(OCCCCCOc2ccc(C(=N)N)cc2N)c(N)c1` [Example 6], the “Rank (of 18) (NEW)” value turned out to be 12.

For the compound `N=C(N)c1ccc(OCCCCCOc2ccc(C(=N)N)cc2Cl)c(Cl)c1` [Example 10], the “Rank (of 18) (NEW)” value is on record as 6.

In the case of `N=C(N)c1ccc(OCCCCCCOc2ccc(C(=N)N)cc2)cc1` [Example 9, hexamidine, reference compound], the “Rank (of 18) (NEW)” value is 1.

As to `N=C(N)c1cccc(OCCCOc2cccc(C(=N)N)c2)c1` [Example 11], the “Rank (of 18) (NEW)” value was determined as 17.

For the compound `N=C(N)c1cccc(OCCCCCOc2cccc(C(=N)N)c2)c1` [Example 13], the “Rank (of 18) (NEW)” value is recorded as 9.

Take `c1cc(C2=NCCN2)ccc1OCCCOc1ccc(C2=NCCN2)cc1` [Example 18]: the “Rank (of 18) (NEW)” value was 8.

With `N=C(N)c1ccc(OCCCCOc2ccc(C(=N)N)cc2)cc1` [Example 3], the “Rank (of 18) (NEW)” value came out at 7.

Turning to `c1cc(C2=NCCN2)ccc1OCCCCCOc1ccc(C2=NCCN2)cc1` [Example 15], the “Rank (of 18) (NEW)” value is recorded as 5.

Take `COc1cc(C(=N)N)ccc1OCCCOc1ccc(C(=N)N)cc1OC` [Example 1]: the “Rank (of 18) (NEW)” value stood at 10.

Turning to `N=C(N)c1ccc(NCCCCCNc2ccc(C(=N)N)cc2)cc1` [Example 8], the “Rank (of 18) (NEW)” value amounted to 2.

With `N=C(N)c1cccc(OCCCCOc2cccc(C(=N)N)c2)c1` [Example 12], the “Rank (of 18) (NEW)” value is reported as 15.

For `COc1cc(C(=N)N)ccc1OCCCCCOc1ccc(C(=N)N)cc1OC` [Example 7], the “Rank (of 18) (NEW)” value is listed as 16.
